Data reported in the supplement of paper PMC4604168 (melanoma cell lines).
This is one part of the list. Many values rest on one well or one pass, so single values are uncertain.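 Imaging used 1,536-well plates; nuclei positive for cleaved PARP by antibody were divided by total DNA-stained nuclei to yield the apoptosis fraction. Doses for screening kept most cells viable, and cell lines differ markedly in resting and induced cleaved-PARP levels.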

Legend:
Test in all cases: cleaved PARP positive nuclei fraction relative to DMSO control; melanoma cells; higher = more apoptosis
Details in all cases: library dose: low library concentration; 72 h
501Mel = system: 501Mel
A101D = system: A101D
A2058 = system: A2058
A375 = system: A375
C32 = system: C32
CBRC008 = system: CBRC008 (line from a melanoma biopsy)
CBRC013 = system: CBRC013 (line from a melanoma biopsy)
CBRC014 = system: CBRC014 (line from a melanoma biopsy)
CBRC016 = system: CBRC016 (line from a melanoma biopsy)
CBRC017 = system: CBRC017 (line from a melanoma biopsy)
COLO792 = system: COLO792
COLO800 = system: COLO800
COLO829 = system: COLO829
G361 = system: G361
IPC-298 = system: IPC-298
IST-MEL1 = system: IST-MEL1
LB2518-MEL = system: LB2518-MEL
LOXIMVI = system: LOXIMVI
MEL-HO = system: MEL-HO

| SMILES | cleaved PARP positive nuclei fraction (501Mel) | cleaved PARP positive nuclei fraction (A101D) | cleaved PARP positive nuclei fraction (A2058) | cleaved PARP positive nuclei fraction (A375) | cleaved PARP positive nuclei fraction (C32) | cleaved PARP positive nuclei fraction (CBRC008) | cleaved PARP positive nuclei fraction (CBRC013) | cleaved PARP positive nuclei fraction (CBRC014) | cleaved PARP positive nuclei fraction (CBRC016) | cleaved PARP positive nuclei fraction (CBRC017) | cleaved PARP positive nuclei fraction (COLO792) | cleaved PARP positive nuclei fraction (COLO800) | cleaved PARP positive nuclei fraction (COLO829) | cleaved PARP positive nuclei fraction (G361) | cleaved PARP positive nuclei fraction (IPC-298) | cleaved PARP positive nuclei fraction (IST-MEL1) | cleaved PARP positive nuclei fraction (LB2518-MEL) | cleaved PARP positive nuclei fraction (LOXIMVI) | cleaved PARP positive nuclei fraction (MEL-HO) |
| --- | --- | --- | --- | --- | --- | --- | --- | --- | --- | --- | --- | --- | --- | --- | --- | --- | --- | --- | --- |
| COc1ccc(C2=N[C@@H](c3ccc(Cl)cc3)[C@@H](c3ccc(Cl)cc3)N2C(=O)N2CCNC(=O)C2)c(OC(C)C)c1 [Nutlin-3] + COc1cc2c(Oc3ccc4[nH]c(C)cc4c3F)ncnc2cc1OCCCN1CCCC1 [cediranib] (first compound 0.1 µM, partner dose 0.4 µM) | 111% | 169% | 72.4% | 197% | 154% | 152% | 131% | 92.7% | 81.8% | 111% | 97.1% | 30.7% | 107% | 93.6% | 44.6% | 71.6% | 106% | 95.5% | 404% |
| Cn1cnc2c(F)c(Nc3ccc(Br)cc3Cl)c(C(=O)NOCCO)cc21 [selumetinib] + CC(C)(C)c1cnc(CSc2cnc(NC(=O)C3CCNCC3)s2)o1 [SNS-032] (first compound 0.015 µM, partner dose 0.01 µM) | 174% | 94.2% | 77.9% | 340% | 89.3% | 108% | 135% | 83.9% | 132% | 105% | 113% | 112% | 75.6% | 55.4% | 59.4% | 105% | 330% | 84.9% | 127% |
| CC1(C)CCC(c2ccc(Cl)cc2)=C(CN2CCN(c3ccc(C(=O)NS(=O)(=O)c4ccc(N[C@H](CCN5CCOCC5)CSc5ccccc5)c(S(=O)(=O)C(F)(F)F)c4)cc3)CC2)C1 + NC(=O)Nc1cc(-c2cccc(F)c2)sc1C(=O)N[C@H]1CCCNC1 [AZD7762] (first compound 0.4 µM, partner dose 0.02 µM) | 214% | 202% | 139% | 1960% | 858% | 306% | 85.4% | 340% | 569% | 276% | 353% | 184% | 136% | 159% | 137% | 76.3% | 119% | 127% | 159% |
| CC1(C)CCC(c2ccc(Cl)cc2)=C(CN2CCN(c3ccc(C(=O)NS(=O)(=O)c4ccc(N[C@H](CCN5CCOCC5)CSc5ccccc5)c(S(=O)(=O)C(F)(F)F)c4)cc3)CC2)C1 + CO[C@@H]1[C@H](N(C)C(=O)c2ccccc2)C[C@H]2O[C@]1(C)n1c3ccccc3c3c4c(c5c6ccccc6n2c5c31)C(=O)NC4 [Midostaurin] (first compound 0.4 µM, partner dose 0.08 µM) | 96% | 304% | 163% | 375% | 494% | 979% | 95.8% | 454% | 740% | 334% | 841% | 124% | 87% | 217% | 128% | 148% | 147% | 126% | 91.7% |
| C[C@@H](N)c1ccc(C(=O)Nc2ccnc3[nH]ccc23)cc1 + NC(=O)Nc1cc(-c2cccc(F)c2)sc1C(=O)N[C@H]1CCCNC1 [AZD7762] (first compound 0.4 µM, partner dose 0.02 µM) | 50% | 53.3% | 41.8% | 878% | 220% | 128% | 93.9% | 94.3% | 233% | 72.2% | 221% | 124% | 141% | 137% | 40.4% | 92.3% | 60.1% | 85.7% | 75.6% |
| NC1(c2ccc(-c3nc4ccn5c(=O)[nH]nc5c4cc3-c3ccccc3)cc2)CCC1 + O=C(CCCCCCC(=O)Nc1ccccc1)NO [vorinostat] (first compound 0.4 µM, partner dose 0.08 µM) | 93.5% | 166% | 131% | 60.2% | 45.1% | 55.8% | 89.8% | 76% | 152% | 89.8% | 112% | 86.3% | 146% | 118% | 44.9% | 51.7% | 137% | 51% | 84.9% |
| CS(=O)(=O)c1ccc(C(=O)Nc2ccc(Cl)c(-c3ccccn3)c2)c(Cl)c1 [vismodegib] + C=CCn1c(=O)c2cnc(Nc3ccc(N4CCN(C)CC4)cc3)nc2n1-c1cccc(C(C)(C)O)n1 [MK1775] (first compound 1 µM, partner dose 0.02 µM) | 83.8% | 270% | 60.1% | 434% | 129% | 111% | 130% | 116% | 208% | 84.7% | 135% | 71.5% | 66.3% | 71.3% | 97.9% | 50.9% | 118% | 70.1% | 65.5% |
| CN(c1ncccc1CNc1nc(Nc2ccc3c(c2)CC(=O)N3)ncc1C(F)(F)F)S(C)(=O)=O + O=C(Nc1cccc(Cl)c1)Nc1ncc(CCNc2ncnc3ccsc23)s1 [SNS314] (first compound 0.08 µM, partner dose 0.0008 µM) | 115% | 82.9% | 73.2% | 60.5% | 334% | 125% | 77.7% | 87% | 84.3% | 84.6% | 53.1% | 133% | 93.3% | 125% | 88.1% | 150% | 70.2% | 53.6% | 144% |
| C[C@@H](N)c1ccc(C(=O)Nc2ccnc3[nH]ccc23)cc1 + CN(NC(=O)CC(=O)NN(C)C(=S)c1ccccc1)C(=S)c1ccccc1 [STA4783] (first compound 0.4 µM, partner dose 0.006 µM) | 145% | 275% | 235% | 7150% | 265% | 3920% | 171% | 689% | 705% | 321% | 233% | 16.7% | 132% | 114% | 166% | 483% | 196% | 107% | 96.1% |
| CC1(C)CCC(c2ccc(Cl)cc2)=C(CN2CCN(c3ccc(C(=O)NS(=O)(=O)c4ccc(N[C@H](CCN5CCOCC5)CSc5ccccc5)c(S(=O)(=O)C(F)(F)F)c4)cc3)CC2)C1 + O=C(CCCCCCC(=O)Nc1ccccc1)NO [vorinostat] (first compound 0.4 µM, partner dose 0.08 µM) | 165% | 324% | 66.7% | 95.1% | 341% | 180% | 588% | 553% | 197% | 314% | 504% | 35.1% | 269% | 143% | 135% | 237% | 170% | 178% | 85.6% |
| COc1ccc(C2=N[C@@H](c3ccc(Cl)cc3)[C@@H](c3ccc(Cl)cc3)N2C(=O)N2CCNC(=O)C2)c(OC(C)C)c1 [Nutlin-3] + Cc1cc(N2CCOCC2)cc2[nH]c(-c3c(NC[C@@H](O)c4cccc(Cl)c4)cc[nH]c3=O)nc12 [BMS536924] (first compound 0.1 µM, partner dose 0.2 µM) | 223% | 93.7% | 60.1% | 217% | 113% | 366% | 78.5% | 106% | 65.4% | 102% | 76.3% | 125% | 91% | 62.8% | 95.3% | 99.8% | 50.3% | 113% | 130% |
| CC1(C)CCC(c2ccc(Cl)cc2)=C(CN2CCN(c3ccc(C(=O)NS(=O)(=O)c4ccc(N[C@H](CCN5CCOCC5)CSc5ccccc5)c(S(=O)(=O)C(F)(F)F)c4)cc3)CC2)C1 + OCCn1cc(-c2cnc3nnn(Cc4ccc5ncccc5c4)c3n2)cn1 [PF04217903] (first compound 0.4 µM, partner dose 1 µM) | 231% | 120% | 77.2% | 202% | 1170% | 1100% | 43.2% | 349% | 499% | 1200% | 294% | 370% | 72.8% | 196% | 46.2% | 40.6% | 69.2% | 178% | 113% |
| CC1(C)CCC(c2ccc(Cl)cc2)=C(CN2CCN(c3ccc(C(=O)NS(=O)(=O)c4ccc(N[C@H](CCN5CCOCC5)CSc5ccccc5)c(S(=O)(=O)C(F)(F)F)c4)cc3)CC2)C1 + COc1cc(Nc2ncc(F)c(Nc3ccc4c(n3)NC(=O)C(C)(C)O4)n2)cc(OC)c1OC [Tamatinib] (first compound 0.4 µM, partner dose 0.4 µM) | 108% | 429% | 311% | 304% | 1060% | 1760% | 95.5% | 524% | 524% | 367% | 2140% | 113% | 213% | 72.8% | 359% | 158% | 379% | 237% | 47.1% |
| Cn1cnc2c(F)c(Nc3ccc(Br)cc3Cl)c(C(=O)NOCCO)cc21 [selumetinib] + O=C(CCCCCCC(=O)Nc1ccccc1)NO [vorinostat] (first compound 0.015 µM, partner dose 0.08 µM) | 189% | 83.5% | 111% | 28.6% | 77.5% | 47.7% | 151% | 91.2% | 182% | 213% | 94.4% | 40.4% | 125% | 101% | 115% | 172% | 128% | 93.4% | 71.8% |
| CC(=O)O[C@@]12CO[C@@H]1C[C@H](O)[C@@]1(C)C(=O)[C@H](O)C3=C(C)[C@@H](OC(=O)[C@H](O)[C@@H](NC(=O)OC(C)(C)C)c4ccccc4)C[C@@](O)([C@@H](OC(=O)c4ccccc4)[C@H]21)C3(C)C [Docetaxel] + CN(C)S(=O)(=O)c1ccc2c(c1)/C(=C/c1cc3c([nH]1)CCCC3)C(=O)N2 [SU6656] (first compound 0.0001 µM, partner dose 0.4 µM) | 108% | 92.4% | 8880% | 14800% | 543% | 222% | 78.4% | 125% | 721% | 148% | 505% | 90.2% | 407% | 724% | 149% | 267% | 159% | 96.9% | 121% |
| CCN(CC)CCNC(=O)c1c(C)[nH]c(/C=C2\C(=O)Nc3ccc(F)cc32)c1C [sunitinib] + NCC(=O)Nc1ccc(-n2nc(C(F)(F)F)cc2-c2ccc3c(ccc4ccccc43)c2)cc1 [OSU03012] (first compound 0.4 µM, partner dose 1 µM) | 298% | 273% | 56.6% | 3120% | 137% | 116% | 204% | 97.4% | 86.6% | 121% | 187% | 75% | 105% | 90.4% | 113% | 391% | 100% | 78.5% | 69.7% |

Some of the entries so far, with bars between the fields:
SMILES | cleaved PARP positive nuclei fraction (501Mel) | cleaved PARP positive nuclei fraction (A101D) | cleaved PARP positive nuclei fraction (A2058) | cleaved PARP positive nuclei fraction (A375) | cleaved PARP positive nuclei fraction (C32) | cleaved PARP positive nuclei fraction (CBRC008) | cleaved PARP positive nuclei fraction (CBRC013) | cleaved PARP positive nuclei fraction (CBRC014) | cleaved PARP positive nuclei fraction (CBRC016) | cleaved PARP positive nuclei fraction (CBRC017) | cleaved PARP positive nuclei fraction (COLO792) | cleaved PARP positive nuclei fraction (COLO800) | cleaved PARP positive nuclei fraction (COLO829) | cleaved PARP positive nuclei fraction (G361) | cleaved PARP positive nuclei fraction (IPC-298) | cleaved PARP positive nuclei fraction (IST-MEL1) | cleaved PARP positive nuclei fraction (LB2518-MEL) | cleaved PARP positive nuclei fraction (LOXIMVI) | cleaved PARP positive nuclei fraction (MEL-HO)
COc1ccc(C2=N[C@@H](c3ccc(Cl)cc3)[C@@H](c3ccc(Cl)cc3)N2C(=O)N2CCNC(=O)C2)c(OC(C)C)c1 [Nutlin-3] + COc1cc2c(Oc3ccc4[nH]c(C)cc4c3F)ncnc2cc1OCCCN1CCCC1 [cediranib] (first compound 0.1 µM, partner dose 0.4 µM) | 111% | 169% | 72.4% | 197% | 154% | 152% | 131% | 92.7% | 81.8% | 111% | 97.1% | 30.7% | 107% | 93.6% | 44.6% | 71.6% | 106% | 95.5% | 404%
Cn1cnc2c(F)c(Nc3ccc(Br)cc3Cl)c(C(=O)NOCCO)cc21 [selumetinib] + CC(C)(C)c1cnc(CSc2cnc(NC(=O)C3CCNCC3)s2)o1 [SNS-032] (first compound 0.015 µM, partner dose 0.01 µM) | 174% | 94.2% | 77.9% | 340% | 89.3% | 108% | 135% | 83.9% | 132% | 105% | 113% | 112% | 75.6% | 55.4% | 59.4% | 105% | 330% | 84.9% | 127%
